No constants are given. Whether binding was seen depends on the method and setting. Binding seen in cells or lysates may run through a third protein. Here binding means that the protein was enriched with, or labelled near, the bait; the list need not be complete.
Target: hemagglutinin-tagged CLIC4 (chloride intracellular channel 4) (UniProt Q9Y696)
Experiment: affinity purification with mass spectrometry; hemagglutinin-tagged CLIC4 purified with a hemagglutinin-tagged protein purification kit from lysates of HPAECs 24 h after infection with AdCLIC4; SDS-PAGE, in-gel digestion, nano-LC-MS/MS; only proteins unique to the hemagglutinin-tag purification fraction listed

By UniProt entry, the sequences of proteins in these tests, tags left out.
UniProt Q9Y696: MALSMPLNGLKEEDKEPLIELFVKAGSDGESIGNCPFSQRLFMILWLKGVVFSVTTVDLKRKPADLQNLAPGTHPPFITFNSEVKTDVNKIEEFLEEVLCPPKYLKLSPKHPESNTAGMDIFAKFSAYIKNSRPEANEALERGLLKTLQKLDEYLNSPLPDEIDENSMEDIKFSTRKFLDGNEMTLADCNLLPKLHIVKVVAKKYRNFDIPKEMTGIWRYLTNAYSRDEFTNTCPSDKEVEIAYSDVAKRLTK
UniProt Q9Y2X7: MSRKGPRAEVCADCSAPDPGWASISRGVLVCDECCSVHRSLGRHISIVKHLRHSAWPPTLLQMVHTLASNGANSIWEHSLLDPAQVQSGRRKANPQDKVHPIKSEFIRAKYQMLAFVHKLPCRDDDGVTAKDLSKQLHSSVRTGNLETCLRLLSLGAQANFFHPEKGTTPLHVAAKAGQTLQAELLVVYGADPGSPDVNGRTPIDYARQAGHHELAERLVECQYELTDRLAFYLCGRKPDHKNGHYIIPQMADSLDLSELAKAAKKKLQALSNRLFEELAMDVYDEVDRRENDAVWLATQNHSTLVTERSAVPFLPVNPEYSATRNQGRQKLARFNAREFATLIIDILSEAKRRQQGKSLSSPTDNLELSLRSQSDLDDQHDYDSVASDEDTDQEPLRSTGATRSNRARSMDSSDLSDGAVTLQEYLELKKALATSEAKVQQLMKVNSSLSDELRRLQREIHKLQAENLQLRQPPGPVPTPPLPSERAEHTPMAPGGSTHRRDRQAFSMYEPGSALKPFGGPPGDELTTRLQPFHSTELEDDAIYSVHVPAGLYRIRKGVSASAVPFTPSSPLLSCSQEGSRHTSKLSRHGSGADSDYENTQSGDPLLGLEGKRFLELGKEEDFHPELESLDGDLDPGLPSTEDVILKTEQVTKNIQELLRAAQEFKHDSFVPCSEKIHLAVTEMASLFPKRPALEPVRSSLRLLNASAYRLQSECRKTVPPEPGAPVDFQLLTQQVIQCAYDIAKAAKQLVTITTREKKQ
UniProt Q04206: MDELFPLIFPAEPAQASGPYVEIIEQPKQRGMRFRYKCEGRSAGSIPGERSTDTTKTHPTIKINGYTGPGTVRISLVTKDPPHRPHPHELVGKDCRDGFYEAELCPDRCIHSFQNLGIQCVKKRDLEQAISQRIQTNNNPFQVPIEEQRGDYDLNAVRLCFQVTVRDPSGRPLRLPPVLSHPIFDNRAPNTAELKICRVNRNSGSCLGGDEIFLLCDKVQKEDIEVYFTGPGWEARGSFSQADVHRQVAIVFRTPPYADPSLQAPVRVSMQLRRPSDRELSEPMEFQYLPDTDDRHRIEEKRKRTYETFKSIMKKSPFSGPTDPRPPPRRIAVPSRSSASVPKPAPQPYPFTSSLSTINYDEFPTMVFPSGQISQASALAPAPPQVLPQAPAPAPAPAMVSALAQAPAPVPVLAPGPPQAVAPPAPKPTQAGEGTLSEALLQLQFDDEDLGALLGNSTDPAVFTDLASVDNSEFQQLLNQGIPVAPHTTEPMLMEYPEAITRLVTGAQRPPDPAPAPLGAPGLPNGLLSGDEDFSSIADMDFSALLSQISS

| Molecule | binding |
| --- | --- |
| GIT1 (G-protein-coupled receptor kinase-interacting protein 1), endogenous (from UniProt Q9Y2X7 1-761) | binds |
| p65NF-kB (from UniProt Q04206 1-551) | binds |
| ubiquitin conjugation factor E4 A (protein, UniProt Q14139 1-1066) MTDQENNNNISSNPFAALFGSLADAKQFAAIQKEQLKQQSDELPASPDDSDNSVSESLDEFDYSVAEISRSFRSQQEICEQLNINHMIQRIFLITLDNSDPSLKSGNGIPSRCVYLEEMAVELEDQDWLDMSNVEQALFARLLLQDPGNHLINMTSSTTLNLSADRDAGERHIFCYLYSCFQRAKEEITKVPENLLPFAVQCRNLTVSNTRTVLLTPEIYVDQNIHEQLVDLMLEAIQGAHFEDVTEFLEEVIEALILDEEVRTFPEVMIPVFDILLGRIKDLELCQILLYAYLDILLYFTRQKDMAKVFVEYIQPKDPTNGQMYQKTLLGVILSISCLLKTPGVVENHGYFLNPSRSSPQEIKVQEANIHQFMAQFHEKIYQMLKNLLQLSPETKHCILSWLGNCLHANAGRTKIWANQMPEIFFQMYASDAFFLNLGAALLKLCQPFCKPRSSRLLTFNPTYCALKELNDEERKIKNVHMRGLDKETCLIPAVQEPKFPQNYNLVTENLALTEYTLYLGFHRLHDQMVKINQNLHRLQVAWRDAQQSSSPAADNLREQFERLMTIYLSTKTAMTEPQMLQNCLNLQVSMAVLLVQLAIGNEGSQPIELTFPLPDGYSSLAYVPEFFADNLGDFLIFLRRFADDILETSADSLEHVLHFITIFTGSIERMKNPHLRAKLAEVLEAVMPHLDQTPNPLVSSVFHRKRVFCNFQYAPQLAEALIKVFVDIEFTGDPHQFEQKFNYRRPMYPILRYMWGTDTYRESIKDLADYASKNLEAMNPPLFLRFLNLLMNDAIFLLDEAIQYLSKIKIQQIEKDRGEWDSLTPEARREKEAGLQMFGQLARFHNIMSNETIGTLAFLTSEIKSLFVHPFLAERIISMLNYFLQHLVGPKMGALKVKDFSEFDFKPQQLVSDICTIYLNLGDEENFCATVPKDGRSYSPTLFAQTVRVLKKINKPGNMIMAFSNLAERIKSLADLQQQEEETYADACDEFLDPIMSTLMCDPVVLPSSRVTVDRSTIARHLLSDQTDPFNRSPLTMDQIRPNTELKEKIQRWLAERKQQKEQLE | binds |
| GIT2 (protein, UniProt Q14161 1-759) MSKRLRSSEVCADCSGPDPSWASVNRGTFLCDECCSVHRSLGRHISQVRHLKHTPWPPTLLQMVETLYNNGANSIWEHSLLDPASIMSGRRKANPQDKVHPNKAEFIRAKYQMLAFVHRLPCRDDDSVTAKDLSKQLHSSVRTGNLETCLRLLSLGAQANFFHPEKGNTPLHVASKAGQILQAELLAVYGADPGTQDSSGKTPVDYARQGGHHELAERLVEIQYELTDRLAFYLCGRKPDHKNGQHFIIPQMADSSLDLSELAKAAKKKLQSLSNHLFEELAMDVYDEVDRRETDAVWLATQNHSALVTETTVVPFLPVNPEYSSTRNQGRQKLARFNAHEFATLVIDILSDAKRRQQGSSLSGSKDNVELILKTINNQHSVESQDNDQPDYDSVASDEDTDLETTASKTNRQKSLDSDLSDGPVTVQEFMEVKNALVASEAKIQQLMKVNNNLSDELRIMQKKLQTLQSENSNLRKQATTNVYQVQTGSEYTDTSNHSSLKRRPSARGSRPMSMYETGSGQKPYLPMGEASRPEESRMRLQPFPAHIGRSALVTSSSSLPSFPSTLSWSRDESARRASRLEKQNSTPESDYDNTPNDMEPDGMGSSRKGRQRSMVWPGDGLVPDTAEPHVAPSPTLPSTEDVIRKTEQITKNIQELLRAAQENKHDSYIPCSERIHVAVTEMAALFPKKPKSDMVRTSLRLLTSSAYRLQSECKKTLPGDPGSPTDVQLVTQQVIQCAYDIAKAAKQLVTITTKENNN | binds |

Reference: publication PMC6325770
